Experimental data: paper PMC12730105, “The Interaction Between PGD2 and G6PD6 Is Involved in Aromatic Amino Acid Synthesis” (Biology, 2025)
No constants are given. Whether binding was seen depends on the method and setting. Binding seen in cells or lysates may run through a third protein. Binding calls can cover weak binding; strength is not graded here. Sequences can lack the tags named with a protein.

Experiments:
[1] = biological target: T1, glucose-6-phosphate dehydrogenase 6 (G6PD6), full length, split-YFP fusion G6PD6-CYFP (Arabidopsis thaliana) (UniProt Q9FJI5); experiment: split reporter; BiFC with split YFP (pCNHP-CYFP and pCNHP-NYFP fusions), transient expression in N. benthamiana leaves by Agrobacterium infiltration, confocal microscopy 3 days after infiltration
T1 sequence: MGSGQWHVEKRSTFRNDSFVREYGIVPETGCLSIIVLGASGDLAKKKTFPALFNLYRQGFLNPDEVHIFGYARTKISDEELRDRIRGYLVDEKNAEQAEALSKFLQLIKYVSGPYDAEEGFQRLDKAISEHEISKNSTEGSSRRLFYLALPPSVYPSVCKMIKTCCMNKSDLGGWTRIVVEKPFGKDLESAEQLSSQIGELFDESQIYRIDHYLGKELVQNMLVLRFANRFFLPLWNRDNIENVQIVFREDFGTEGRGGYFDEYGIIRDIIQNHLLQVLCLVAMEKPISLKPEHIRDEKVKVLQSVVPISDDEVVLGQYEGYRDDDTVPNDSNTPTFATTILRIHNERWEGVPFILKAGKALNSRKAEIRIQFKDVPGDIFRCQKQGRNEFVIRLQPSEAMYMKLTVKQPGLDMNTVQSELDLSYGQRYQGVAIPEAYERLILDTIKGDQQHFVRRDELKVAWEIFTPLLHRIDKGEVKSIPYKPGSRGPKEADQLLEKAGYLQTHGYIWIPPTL

[2] = biological target: T2, 6-phosphogluconate dehydrogenase 2 (PGD2), full length, split-YFP fusion PGD2-NYFP (Arabidopsis thaliana) (UniProt Q9FWA3); experiment: as above
T2 sequence: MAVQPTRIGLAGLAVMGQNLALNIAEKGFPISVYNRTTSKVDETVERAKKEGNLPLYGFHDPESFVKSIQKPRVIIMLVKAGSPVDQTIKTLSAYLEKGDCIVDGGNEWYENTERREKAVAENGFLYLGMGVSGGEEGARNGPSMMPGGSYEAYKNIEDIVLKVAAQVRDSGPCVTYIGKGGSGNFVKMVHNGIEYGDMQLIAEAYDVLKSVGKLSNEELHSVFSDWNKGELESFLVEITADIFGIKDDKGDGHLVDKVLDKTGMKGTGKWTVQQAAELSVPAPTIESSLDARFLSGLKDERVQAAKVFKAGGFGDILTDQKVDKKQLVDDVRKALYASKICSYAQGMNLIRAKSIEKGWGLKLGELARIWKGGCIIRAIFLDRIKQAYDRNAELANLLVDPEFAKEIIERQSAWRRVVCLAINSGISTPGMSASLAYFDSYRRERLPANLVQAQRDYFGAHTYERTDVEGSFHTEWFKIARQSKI

binding [1]: binds | binding [2]: binds
Substance: C-terminal region of PGD2 (domain mapping, BiFC fusion) (Arabidopsis thaliana) (domain or fragment)
